Test results from publication PMC4199500.
Results are given in words; binding and its absence hold for the method and conditions named. In cells and extracts the contact can be indirect.

Protein sequences, listed by entry. Tags and fused reporters are not part of them.
UniProt Q13148: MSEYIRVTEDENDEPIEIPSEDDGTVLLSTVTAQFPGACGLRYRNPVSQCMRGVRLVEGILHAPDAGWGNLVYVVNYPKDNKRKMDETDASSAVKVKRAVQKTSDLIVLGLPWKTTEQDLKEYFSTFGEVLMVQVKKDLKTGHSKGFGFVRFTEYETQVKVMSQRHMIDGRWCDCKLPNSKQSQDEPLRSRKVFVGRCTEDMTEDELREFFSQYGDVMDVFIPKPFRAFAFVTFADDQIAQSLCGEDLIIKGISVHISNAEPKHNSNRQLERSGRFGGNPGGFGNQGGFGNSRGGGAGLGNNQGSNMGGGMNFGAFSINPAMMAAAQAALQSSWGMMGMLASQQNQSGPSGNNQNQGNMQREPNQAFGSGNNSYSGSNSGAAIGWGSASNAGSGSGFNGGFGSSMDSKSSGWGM
UniProt O43524: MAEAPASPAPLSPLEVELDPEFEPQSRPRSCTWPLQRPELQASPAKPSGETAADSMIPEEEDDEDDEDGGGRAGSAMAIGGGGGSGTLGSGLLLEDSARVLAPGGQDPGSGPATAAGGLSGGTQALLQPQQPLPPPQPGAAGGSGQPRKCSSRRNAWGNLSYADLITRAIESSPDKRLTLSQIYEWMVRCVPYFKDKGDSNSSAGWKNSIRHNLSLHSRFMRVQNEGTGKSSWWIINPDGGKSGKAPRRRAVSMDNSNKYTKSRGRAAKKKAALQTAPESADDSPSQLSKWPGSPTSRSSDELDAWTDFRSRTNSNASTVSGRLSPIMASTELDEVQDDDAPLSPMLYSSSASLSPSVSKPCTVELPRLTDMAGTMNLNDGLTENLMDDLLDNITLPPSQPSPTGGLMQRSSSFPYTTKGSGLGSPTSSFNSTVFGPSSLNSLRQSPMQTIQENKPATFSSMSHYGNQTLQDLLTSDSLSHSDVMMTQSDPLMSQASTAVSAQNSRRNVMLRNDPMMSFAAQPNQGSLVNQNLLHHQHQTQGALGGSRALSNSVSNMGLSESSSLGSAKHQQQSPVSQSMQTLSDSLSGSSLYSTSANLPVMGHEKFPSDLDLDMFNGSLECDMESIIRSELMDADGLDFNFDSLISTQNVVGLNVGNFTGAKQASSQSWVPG

Biological target: Myc-tagged TDP-43 (transactive response DNA-binding protein, TARDBP) (human) (UniProt Q13148)
Test: co-IP; HEK293T cells co-transfected with Myc-TDP-43 and Flag-FOXO3a or Flag-FOXO3aAAA; anti-Myc (TDP-43) antibody for the pull-down, western blotting with anti-Myc and anti-Flag

Flag-tagged FOXO3a (from UniProt O43524 1-673)
binding: no binding
